PubChem BioAssay AID493246 – Drosophila RNAi Screening Center – 2011

Test: 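Genes fly cells need to grow and stay alive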 (primary screen)
Cells: Drosophila Kc and S2R+ cells
Knock-down reagent: long dsRNA against Drosophila genes
Measurement: 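Cell number per well after knock-down, printed as raw plate values; calls were based on per-plate z-scores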
Direction: Kc cell number and S2R+ cell number: higher = more cells remaining
Active means: 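Counted as a hit if cell number falls by a z-score of at least 3 within its plate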
The deposit covers about 21,000 reagents; this is an unselected part of those with a known target gene and a result. Of all reagents, 429 (2%) are marked active. 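Values are raw and not normalised between plates; calls rest on per-plate z-scores that were not deposited.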 Unmarked entries are inactive. Names joined by + are all predicted targets of the reagent. The record does not give: the amount of reagent, the time to read-out.

The opening 7 entries, ahead of the listing:
predicted target,amplicon,"Kc cell number, rep 1","Kc cell number, rep 2","S2R+ cell number, rep 1","S2R+ cell number, rep 2"
MAPk-Ak2 (MAP kinase activated protein-kinase-2),DRSC18678,1.66e6,1.61e6,1.14e6,1.20e6
Hnf4 (Hepatocyte nuclear factor 4),DRSC01032,1.51e6,1.57e6,1.03e6,1.18e6
Pp2A-29B (Protein phosphatase 2A at 29B),DRSC03400,1.54e6,1.58e6,1.23e6,1.36e6
Prtl99C (Protamine-like 99C),DRSC15049,1.38e6,1.43e6,1.07e6,1.11e6
RpL10Ab (Ribosomal protein L10Ab),DRSC10798,1.01e6 (active),9.98e5,6.66e5,7.87e5
Nup54 (Nucleoporin 54kD),DRSC07282,1.24e6,1.33e6,1.11e6,1.15e6
Mst89B,DRSC16748,1.20e6,1.28e6,1.20e6,1.38e6

The listing, repeating the preview:
predicted target,amplicon,"Kc cell number, rep 1","Kc cell number, rep 2","S2R+ cell number, rep 1","S2R+ cell number, rep 2"
MAPk-Ak2 (MAP kinase activated protein-kinase-2),DRSC18678,1.66e6,1.61e6,1.14e6,1.20e6
Hnf4 (Hepatocyte nuclear factor 4),DRSC01032,1.51e6,1.57e6,1.03e6,1.18e6
Pp2A-29B (Protein phosphatase 2A at 29B),DRSC03400,1.54e6,1.58e6,1.23e6,1.36e6
Prtl99C (Protamine-like 99C),DRSC15049,1.38e6,1.43e6,1.07e6,1.11e6
RpL10Ab (Ribosomal protein L10Ab),DRSC10798,1.01e6 (active),9.98e5,6.66e5,7.87e5
Nup54 (Nucleoporin 54kD),DRSC07282,1.24e6,1.33e6,1.11e6,1.15e6
Mst89B,DRSC16748,1.20e6,1.28e6,1.20e6,1.38e6
wcy (wacky),DRSC20132,1.62e6,1.65e6,9.26e5,9.80e5
Chd1 (Chromodomain-helicase-DNA-binding protein 1),DRSC00745,1.16e6,1.23e6,9.46e5,1.02e6
Svip (small VCP interacting protein),DRSC08982,1.56e6,1.59e6,1.20e6,1.38e6
Mur2B (Mucin related 2B),DRSC18545,1.73e6,1.78e6,1.05e6,1.19e6
Mur2B (Mucin related 2B),DRSC18546,1.53e6,1.60e6,1.02e6,1.13e6
CG14451,DRSC11708,1.56e6,1.61e6,1.28e6,1.42e6
CG9029,DRSC03129,1.60e6,1.26e6,1.10e6,1.23e6
HPS4 (Hermansky-Pudlak Syndrome 4),DRSC06906,1.89e6,1.81e6,1.34e6,1.70e6
CG13801,DRSC08335,1.46e6,1.39e6,1.03e6,1.21e6
CG13060,DRSC09943,1.43e6,1.58e6,1.27e6,1.43e6
fipi (factor of interpulse interval),DRSC00465,1.57e6,1.52e6,8.00e5,9.37e5
CG17567 (retired record),DRSC02627,1.49e6,1.60e6,1.33e6,3.57e5
CG43896,DRSC10754,1.35e6,1.37e6,1.41e6,1.54e6
CG5810,DRSC15880,1.23e6,1.24e6,1.08e6,1.09e6
CG12926,DRSC06239,1.55e6,1.50e6,1.12e6,1.20e6
CG13557,DRSC04195,1.74e6,1.84e6,1.23e6,1.33e6
CG7627,DRSC03065,1.34e6,1.34e6,7.57e5,9.36e5
CG15412,DRSC00427,1.61e6,1.59e6,1.24e6,1.37e6
CCDC151 (Coiled-coil domain containing protein 151),DRSC10131,1.38e6,1.45e6,1.41e6,1.52e6
CG9649,DRSC16534,1.73e6,1.83e6,1.25e6,1.28e6
cav (caravaggio),DRSC15995,1.47e6,1.55e6,1.08e6,1.12e6
ATPCL (ATP citrate lyase),DRSC05913,1.50e6,1.53e6,1.02e6,1.19e6
CG12065,DRSC17798,5.77e5,,8.94e5,
CG12065,DRSC17799,1.63e6,1.70e6,1.12e6,1.25e6
Hexo1 (Hexosaminidase 1),DRSC08663,1.54e6,1.51e6,1.13e6,1.43e6
Tbce (Tubulin-binding cofactor E),DRSC04897,1.50e6,1.59e6,1.05e6,9.80e5
CG9948,DRSC11104,1.47e6,1.45e6,1.16e6,1.17e6
Acp62F (Accessory gland protein 62F),DRSC08136,1.43e6,1.33e6,1.04e6,1.31e6
Dhfr (Dihydrofolate reductase),DRSC16646,1.43e6,1.42e6,1.22e6,1.24e6
Idh3b (Isocitrate dehydrogenase 3b),DRSC16040,1.66e6,1.80e6,1.16e6,1.27e6
JYalpha,DRSC17224,1.57e6,1.49e6,1.12e6,1.25e6
Uqcc1 + CG9948,DRSC09690,1.24e6,1.21e6,1.24e6,1.25e6
Proc (Proctolin),DRSC03009,3.48e5 (active),4.95e5,5.46e5,6.18e5
tko (technical knockout),DRSC18844,1.45e6,1.46e6,9.16e5,1.08e6
"Smyd3 (SET and MYND domain containing, class 3)",DRSC17744,1.67e6,1.72e6,1.03e6,1.18e6
Hipk (Homeodomain interacting protein kinase),DRSC07885,1.37e6,1.38e6,1.01e6,1.17e6
Hipk (Homeodomain interacting protein kinase),DRSC08507,1.18e6,1.08e6,9.53e5,1.00e6
etaTry (etaTrypsin),DRSC07613,1.46e6,1.48e6,1.20e6,1.34e6
CG32687,DRSC18210,1.57e6,1.48e6,1.04e6,1.12e6
CG32687,DRSC18237,1.60e6,1.50e6,1.02e6,1.15e6
CG14659,DRSC12245,1.82e6,2.26e6,1.28e6,1.42e6
dpr3 (defective proboscis extension response 3),DRSC00395,1.52e6,1.58e6,1.01e6,1.16e6
dpr3 (defective proboscis extension response 3),DRSC00396,1.51e6,1.56e6,1.04e6,1.14e6
CG30192,DRSC03977,6.61e5,,9.92e5,
CG10713,DRSC09786,1.35e6,1.46e6,1.27e6,1.27e6
CG13255,DRSC11702,1.27e6,1.38e6,1.28e6,1.33e6
KaiR1D (Kainate-type ionotropic glutamate receptor subunit 1D),DRSC15516,1.25e6,1.26e6,1.12e6,1.19e6
peo (pendolino),DRSC05995,1.34e6,1.39e6,1.05e6,1.17e6
Lsp2 (Larval serum protein 2),DRSC09841,1.73e6,1.69e6,1.40e6,1.51e6
Lsp2 (Larval serum protein 2),DRSC11216,1.57e6,1.50e6,1.34e6,1.46e6
udd (under-developed),DRSC06720,1.88e6,1.88e6,1.43e6,1.60e6
CG42361,DRSC04391,1.50e6,1.57e6,1.29e6,1.45e6
